Reference: PubChem BioAssay AID540276 (National Center for Advancing Translational Sciences (NCATS), 2011)
The whole screen tested about 300,000 compounds, of which about 5,400 (1.8%) were called active. The shares of active, inactive and inconclusive entries below differ from those in the screen. The call rests on the fitted dose curve; tested in HEK293 cells. Potencies beside an inconclusive call are fits to weak or partial responses and may not hold up.
Potency means the concentration at half of the fitted maximal effect.

Test: qHTS for inhibitors of binding or entry into cells for Marburg Virus
Conditions: Marburg virus pseudotyped entry inhibition, cell reporter; series mostly up to 37.8 µM
With COc1cccc(N(C(=O)c2snc(C(N)=O)c2N)C(C(=O)NCC2CCCO2)c2cccs2)c1 (stereo not drawn) the Potency was inconclusive: 35.5 µM [inhibitor, partial curve, poor fit]. With COc1ccccc1NC(=O)c1ccc(COc2ccccc2OC)cc1 the Potency was “inactive”. With Cc1cc(C)n(-c2ccc(C(=O)OCC(=O)NC(c3ccccc3)c3ccccc3)cc2)n1 the Potency was “inactive”. In the case of COc1ccc2sc(C)[n+](C)c2c1, the Potency is reported as “inactive”. For COc1ccc(-n2c(SCC(=O)NCC3CCCO3)nc3c(c2=O)SC(C)C3)cc1 (stereo not drawn), the Potency was “inactive”. With Cc1ccc(CNc2cnccn2)cc1 the Potency was “inactive”. With O=C(Nc1ccccc1C(=O)N/N=C/c1ccco1)c1ccc(Cl)cc1 the Potency was “inactive”. In the case of CCn1c(CCNC(=O)c2cccs2)nnc1SCC(=O)Nc1nc(-c2ccccc2)cs1, the Potency is reported as inconclusive: 25.9 µM [inhibitor, single point]. In the case of Cc1ccccc1NC(=S)NC(NC(=O)COc1ccccc1)C(Cl)(Cl)Cl (stereo not drawn), the Potency is reported as inconclusive: 11.6 µM [inhibitor, partial curve]. In the case of COc1ccc2oc(C(F)(F)C(F)F)cc(=O)c2c1, the Potency is reported as inconclusive: 35.5 µM [activator, single point]. In the case of CC1=C(C(=O)Nc2ccccc2)C(c2ccccc2)n2nc(-c3ccco3)nc2N1 (stereo not drawn), the Potency is reported as “inactive”. For O=C(COc1ccc(/C=N/NC(=O)c2cc3ccccc3o2)cc1Cl)Nc1ccccc1, the Potency was inconclusive: 3.16 µM [inhibitor, full curve, poor fit]. In the case of CC(C)C1NC(=S)N(Cc2ccccc2)C1=O (stereo not drawn), the Potency is reported as inconclusive: 0.259 µM [inhibitor, single point]. In the case of COc1ccccc1/C=C/C1(C(=O)NC2CCCC2)CC(=O)N1c1ccc(C)cc1 (stereo not drawn), the Potency is reported as inconclusive: 29.1 µM [inhibitor, single point]. In the case of Cc1cc(C)n(-c2ccc(C(=O)Nc3cccc(S(=O)(=O)N4CCCC4)c3)cc2)n1, the Potency is reported as inconclusive: 29.1 µM [inhibitor, single point]. In the case of C=CCn1c(O)c(/C=N/N2CCCCC2)c(=O)[nH]c1=O, the Potency is reported as inconclusive: 3.55 µM [inhibitor, partial curve, poor fit]. In the case of O=S(=O)(NCC1CCCO1)c1ccc(S(=O)(=O)N(Cc2ccc(F)cc2)Cc2ccco2)cc1 (stereo not drawn), the Potency is reported as “inactive”. In the case of CCOc1ncccc1C(=O)N1CCN(S(=O)(=O)c2ccc(Br)cc2Cl)CC1, the Potency is reported as inconclusive: 0.316 µM [inhibitor, partial curve, poor fit]. In the case of CCOC(=O)c1c(NC(=O)C2C3C=CC(C3)C2C(=O)O)sc2c1CCC(C)C2 (stereo not drawn), the Potency is reported as inconclusive: 0.1 µM [activator, partial curve, poor fit]. In the case of COc1cc(CNCc2ccccn2)ccc1OCc1c(Cl)cccc1Cl, the Potency is reported as inconclusive: 29.1 µM [inhibitor, single point]. With CC1CCCC(C)N1C(=O)C1CC(c2ccc(F)cc2)=NO1 (stereo not drawn) the Potency was “inactive”. In the case of CS/C(=N\N(C)C(N)=O)c1ccccc1, the Potency is reported as “inactive”. In the case of Cc1ccc(OCC(=O)c2ccc3c(c2)CCCC3)cc1C, the Potency is reported as “inactive”. In the case of CC1=C(C(=O)OCC2CCCCC2)C(c2ccc(F)cc2F)CC(=O)N1 (stereo not drawn), the Potency is reported as inconclusive: 1.12 µM [inhibitor, partial curve, poor fit]. With CC(C)C/C(O)=C/c1nc2cc(Cl)ccc2oc1=O the Potency was inconclusive: 35.5 µM [inhibitor, single point]. For CC(=O)c1sc(NC(=O)CCS(=O)(=O)c2ccc(Cl)cc2)nc1C, the Potency was inconclusive: 35.5 µM [inhibitor, single point]. In the case of COc1ccc(-c2ccc(NS(=O)(=O)c3cc([N+](=O)[O-])ccc3C)cc2)nn1, the Potency is reported as inconclusive: 1.12 µM [activator, full curve, poor fit]. With CCn1nc(C(=O)N[C@@H](CCSC)c2nc3ccccc3[nH]2)c2ccccc2c1=O the Potency was “inactive”. With CCOC(=O)c1ccc(NC(=S)N(CCN(C)C)Cc2cccs2)cc1 the Potency was inconclusive: 1 µM [inhibitor, full curve, poor fit]. For CCOC(=O)c1c(-c2ccccc2)[nH]c2ccc(O)cc12, the Potency was inconclusive: 35.5 µM [inhibitor, single point]. With COc1ccc2[nH]c(=O)c(CN(C(=O)c3cccnc3)c3ccccc3)cc2c1 the Potency was “inactive”. For C/C(=N\NC(=O)c1cc2ccccc2cc1O)c1cccs1, the Potency was inconclusive: 7.94 µM [inhibitor, partial curve, poor fit]. For COc1ccc(OCCCC(=O)Nc2cccc([N+](=O)[O-])c2)cc1, the Potency was inconclusive: 0.112 µM [inhibitor, full curve, poor fit]. In the case of O=C(N=C1c2ccccc2CN1c1ccccc1)c1cccc([N+](=O)[O-])c1, the Potency is reported as inconclusive: 6.31 µM [inhibitor, single point]. For CC(C)[C@H](NC(=O)c1cccc(S(=O)(=O)N2CCOCC2)c1)C(=O)NCc1ccc(F)cc1, the Potency was inconclusive: 7.08 µM [inhibitor, partial curve, poor fit]. In the case of O=C(N/N=C\c1ccc(F)cc1)c1ccc(Cn2cc(Br)c([N+](=O)[O-])n2)o1, the Potency is reported as inconclusive: 35.5 µM [inhibitor, single point]. With CCOc1cc(S(=O)(=O)N2CCCC2)c(C)cc1C the Potency was inconclusive: 3.16 µM [activator, single point]. In the case of Cc1cc(/C=C2\SC(N)=NC2=O)c(C)n1-c1ccc(F)cc1, the Potency is reported as “inactive”. In the case of O=C(COC(=O)c1ccc(Br)o1)Nc1cccc(S(=O)(=O)N2CCCCCC2)c1, the Potency is reported as inconclusive: 35.5 µM [inhibitor, single point]. In the case of Brc1ccc(-c2nc(-c3ccccc3)no2)o1, the Potency is reported as inconclusive: 16.4 µM [inhibitor, partial curve, poor fit]. With Cc1ccc(-c2cc(C(=O)N3CC(C)CC(C)C3)c3ccccc3n2)o1 (stereo not drawn) the Potency was inconclusive: 35.5 µM [inhibitor, single point]. With CCC(=O)N1CCc2cc(Br)cc(S(=O)(=O)NCc3ccco3)c21 the Potency was inconclusive: 35.5 µM [inhibitor, single point]. With O=C(CCl)Nc1ccc(S(=O)(=O)Nc2nccs2)cc1 the Potency was inconclusive: 22.4 µM [inhibitor, single point].
